Reference: PMC12489036
These are yes or no findings as the source states them, for the method shown. Binding seen in cells or lysates may run through a third protein. Some entries that bind do so weakly or less than the wild type. Where a sequence is shown, tags or fusion partners need not be part of it.

Sequences of proteins named here, by UniProt entry; tags and fusion partners are left off.
UniProt Q9UBN7: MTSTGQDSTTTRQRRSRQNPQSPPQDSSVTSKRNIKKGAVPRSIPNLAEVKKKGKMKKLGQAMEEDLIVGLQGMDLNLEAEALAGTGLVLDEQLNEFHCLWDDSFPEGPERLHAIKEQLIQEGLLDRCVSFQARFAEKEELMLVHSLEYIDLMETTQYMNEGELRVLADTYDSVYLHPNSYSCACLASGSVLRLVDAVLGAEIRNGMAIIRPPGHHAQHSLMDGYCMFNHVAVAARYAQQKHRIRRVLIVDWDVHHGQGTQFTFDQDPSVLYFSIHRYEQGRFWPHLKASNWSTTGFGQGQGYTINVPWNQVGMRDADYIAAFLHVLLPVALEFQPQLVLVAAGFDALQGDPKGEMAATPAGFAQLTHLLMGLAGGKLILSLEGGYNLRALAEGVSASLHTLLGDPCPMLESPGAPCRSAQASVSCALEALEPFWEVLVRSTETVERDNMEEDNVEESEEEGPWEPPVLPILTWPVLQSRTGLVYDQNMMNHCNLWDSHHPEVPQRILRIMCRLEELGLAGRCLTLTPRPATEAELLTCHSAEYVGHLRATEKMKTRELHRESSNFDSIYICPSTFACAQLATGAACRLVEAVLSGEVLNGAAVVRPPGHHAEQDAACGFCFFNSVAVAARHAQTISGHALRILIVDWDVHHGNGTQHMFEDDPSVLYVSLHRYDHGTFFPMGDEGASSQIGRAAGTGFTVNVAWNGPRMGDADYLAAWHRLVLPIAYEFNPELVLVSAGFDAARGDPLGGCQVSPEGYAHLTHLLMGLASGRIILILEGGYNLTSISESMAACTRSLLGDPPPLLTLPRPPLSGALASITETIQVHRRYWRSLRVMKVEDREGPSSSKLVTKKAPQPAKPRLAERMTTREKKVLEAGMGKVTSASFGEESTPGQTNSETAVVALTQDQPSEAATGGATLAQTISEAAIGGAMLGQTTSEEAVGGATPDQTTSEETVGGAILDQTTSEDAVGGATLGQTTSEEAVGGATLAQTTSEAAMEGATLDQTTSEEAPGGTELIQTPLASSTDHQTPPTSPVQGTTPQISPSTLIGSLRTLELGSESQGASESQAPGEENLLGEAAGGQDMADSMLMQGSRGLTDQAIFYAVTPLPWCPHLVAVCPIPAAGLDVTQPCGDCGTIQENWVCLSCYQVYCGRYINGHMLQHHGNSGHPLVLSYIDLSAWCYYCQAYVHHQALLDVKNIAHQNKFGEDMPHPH

Target: T1, FLAG-SAE2, wild type, doxycycline-inducible in U2OS cells (human) (UniProt Q9UBT2)
T1 sequence: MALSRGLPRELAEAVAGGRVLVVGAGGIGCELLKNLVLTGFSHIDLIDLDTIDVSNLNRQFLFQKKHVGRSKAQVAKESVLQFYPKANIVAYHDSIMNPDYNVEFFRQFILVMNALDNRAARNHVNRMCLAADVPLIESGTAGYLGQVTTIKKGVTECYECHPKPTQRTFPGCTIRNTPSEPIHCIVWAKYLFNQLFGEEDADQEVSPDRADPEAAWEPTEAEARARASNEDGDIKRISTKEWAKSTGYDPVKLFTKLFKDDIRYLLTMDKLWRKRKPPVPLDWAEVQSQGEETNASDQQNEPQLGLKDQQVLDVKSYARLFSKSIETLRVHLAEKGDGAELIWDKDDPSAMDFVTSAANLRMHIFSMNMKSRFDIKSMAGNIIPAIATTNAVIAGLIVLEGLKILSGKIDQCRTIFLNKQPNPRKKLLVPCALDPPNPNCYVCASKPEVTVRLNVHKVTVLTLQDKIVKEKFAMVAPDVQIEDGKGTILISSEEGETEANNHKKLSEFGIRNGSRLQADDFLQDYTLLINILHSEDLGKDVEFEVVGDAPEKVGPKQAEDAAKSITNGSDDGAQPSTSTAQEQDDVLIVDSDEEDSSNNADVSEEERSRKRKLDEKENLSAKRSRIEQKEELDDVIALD
Assay: co-IP; anti-FLAG (M2) agarose from RIPA lysates of U2OS cells expressing FLAG-SAE2, blot for HDAC6; asynchronous cells or 16 h nocodazole and mitotic shake-off

With “HDAC6, endogenous (from UniProt Q9UBN7 1-1215) (enzyme)” the binding was “binds”.
